Measurements reported in PubChem BioAssay AID1053208 (Peter MacCallum Cancer Centre, 2014).
In all, the deposit lists about 17,000 reagents; this is a random part of them. Of all reagents, 788 (4.7%) are marked active. 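Calls rest on z-score classes alone; an extra cut-off of viability at most 70% of control was not applied to them.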 Further read-outs or replicates are left out here.

Test: 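Synthetic lethal interactions between gene loss and doxorubicin in osteosarcoma cells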 (primary screen)
Cell system: mouse osteosarcoma cells, early-passage culture from an engineered mouse model of fibroblastic bone tumour
Reagent: siRNA pool against mouse genes, 40 nM
Duration: about 120 h (48 h before drug, then 72 h with drug)
Treatment: doxorubicin 100 nM for 72 h, roughly 30-40% inhibitory dose
Measurement: 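Luminescent ATP signal taken as viability with or without 100 nM doxorubicin for 72 h; mean of two wells set against non-targeting siRNA and turned into robust z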
Direction: viability z-score with doxorubicin: higher = more viable cells under doxorubicin; viability z-score without drug: higher = more viable cells with knock-down alone; z-score of drug to no-drug ratio: higher = less drug sensitisation by knock-down
Active means: 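a pool counts as active when its viability z-score with doxorubicin is -2 or below and its z-score without drug lies between -2 and 2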

gene	PubChem SID	combined z-score class	viability z-score with doxorubicin	viability z-score without drug	z-score of drug to no-drug ratio	Outcome
Krtap19-4 (keratin associated protein 19-4)	SID152268393	no change with or without drug	-0.11	0.84	-0.56	inactive
Tns2 (tensin 2)	SID152326252	no change with or without drug	-0.22	0.51	-0.45	inactive
Gtf2h2 (general transcription factor II H, polypeptide 2)	SID152296052	no change with or without drug	-0.22	0.17	-0.22	inactive
Efemp2	SID152313647	no change with or without drug	-1.8	0.34	-2.02	inactive
Brd7 (bromodomain containing 7)	SID152288186	no change with or without drug	-0.67	-0.17	-0.45	inactive
Ccne1 (cyclin E1)	SID152295091	no change with or without drug	0.56	0.51	0.34	inactive
Slc37a2	SID152294148	no change with or without drug	-0.9	0	-0.79	inactive
Soat1 (sterol O-acyltransferase 1)	SID152319673	no change with or without drug	-1.35	-0.84	-0.79	inactive
Mtg2 (mitochondrial ribosome associated GTPase 2)	SID152318998	low cell count with doxorubicin only	-2.81	-0.17	-2.81	active
Mc4r (melanocortin 4 receptor)	SID152269923	no change with or without drug	0.79	1.18	0.11	inactive
Gp5 (glycoprotein 5 platelet)	SID152263359	no change with or without drug	0.22	0.67	-0.11	inactive
Kcnab1	SID152260752	no change with or without drug	1.46	0.34	1.35	inactive
Prss29 (serine protease 29)	SID152262646	no change with or without drug	-0.45	0.67	-0.79	inactive
Acrbp (proacrosin binding protein)	SID152283475	no change with or without drug	0.22	0.84	-0.22	inactive
Fgb (fibrinogen beta chain)	SID152314081	no change with or without drug	-1.46	1.35	-2.14	inactive
Nr4a3 (nuclear receptor subfamily 4, group A, member 3)	SID152291486	high cell count with doxorubicin only	2.59	-0.17	2.92	inactive
Trpv5	SID152319349	no change with or without drug	-1.12	-0.17	-1.01	inactive
4930470P17Rik (RIKEN cDNA 4930470P17 gene)	SID152311218	no change with or without drug	-1.01	1.52	-1.8	inactive
Pip4k2b (phosphatidylinositol-5-phosphate 4-kinase, type II, beta)	SID152322361	no change with or without drug	-1.01	0.51	-1.24	inactive
Dmkn (dermokine)	SID152323984	no change with or without drug	0	0.17	0	inactive
Unc5c (unc-5 netrin receptor C)	SID152327595	no change with or without drug	-0.22	-0.51	0.22	inactive
4921509C19Rik (RIKEN cDNA 4921509C19 gene)	SID152314033	no change with or without drug	0	1.01	-0.56	inactive
Oas3 (2'-5' oligoadenylate synthetase 3)	SID152332225	no change with or without drug	0.9	0.67	0.56	inactive
Kpna4 (karyopherin subunit alpha 4)	SID152279296	no change with or without drug	-0.45	-0.51	0	inactive
Ces2g (carboxylesterase 2G)	SID152280245	no change with or without drug	-0.67	0.17	-0.67	inactive
Oasl1 (2'-5' oligoadenylate synthetase-like 1)	SID152304795	no change with or without drug	-0.22	1.01	-0.79	inactive
Echdc3 (enoyl Coenzyme A hydratase domain containing 3)	SID152267006	high cell count without drug only	0.56	2.53	-0.9	inactive
Ppargc1b	SID152298347	no change with or without drug	0.67	0.51	0.45	inactive
Dppa3 (developmental pluripotency-associated 3)	SID152284304	no change with or without drug	0	0	0.11	inactive
BC002230	SID152308112	no change with or without drug	0.9	-0.17	1.24	inactive
Zfp36 (zinc finger protein 36)	SID152263862	no change with or without drug	1.69	0.84	1.24	inactive
Timd4 (T cell immunoglobulin and mucin domain containing 4)	SID152334221	no change with or without drug	0.45	1.69	-0.56	inactive
Or5ac20 (olfactory receptor family 5 subfamily AC member 20)	SID152334800	no change with or without drug	-0.22	-0.51	0.22	inactive
Eif3c (eukaryotic translation initiation factor 3, subunit C)	SID152288289	low cell count with and without drug	-6.41	-9.61	-0.11	inactive
Btf3 (basic transcription factor 3)	SID152311907	no change with or without drug	1.24	-1.52	2.7	inactive
Smc6 (structural maintenance of chromosomes 6)	SID152282490	no change with or without drug	-0.9	-0.17	-0.79	inactive
Defb15 (defensin beta 15)	SID152342229	no change with or without drug	-1.57	-0.17	-1.46	inactive

Copied from the listing for reference:
gene	PubChem SID	combined z-score class	viability z-score with doxorubicin	viability z-score without drug	z-score of drug to no-drug ratio	Outcome
Trpv5	SID152319349	no change with or without drug	-1.12	-0.17	-1.01	inactive
4930470P17Rik (RIKEN cDNA 4930470P17 gene)	SID152311218	no change with or without drug	-1.01	1.52	-1.8	inactive
Pip4k2b (phosphatidylinositol-5-phosphate 4-kinase, type II, beta)	SID152322361	no change with or without drug	-1.01	0.51	-1.24	inactive
Dmkn (dermokine)	SID152323984	no change with or without drug	0	0.17	0	inactive
Unc5c (unc-5 netrin receptor C)	SID152327595	no change with or without drug	-0.22	-0.51	0.22	inactive
4921509C19Rik (RIKEN cDNA 4921509C19 gene)	SID152314033	no change with or without drug	0	1.01	-0.56	inactive
Oas3 (2'-5' oligoadenylate synthetase 3)	SID152332225	no change with or without drug	0.9	0.67	0.56	inactive
Kpna4 (karyopherin subunit alpha 4)	SID152279296	no change with or without drug	-0.45	-0.51	0	inactive
Ces2g (carboxylesterase 2G)	SID152280245	no change with or without drug	-0.67	0.17	-0.67	inactive

The list goes on.
gene	PubChem SID	combined z-score class	viability z-score with doxorubicin	viability z-score without drug	z-score of drug to no-drug ratio	Outcome
Trim3 (tripartite motif-containing 3)	SID152259843	high cell count with and without drug	3.04	3.2	0.9	inactive
Shtn1 (shootin 1)	SID152339587	low cell count with doxorubicin only	-3.48	-0.17	-3.48	active
Bcs1l	SID152278217	no change with or without drug	1.12	0	1.24	inactive
Cts6 (cathepsin 6)	SID152308718	no change with or without drug	-0.22	-0.51	0.22	inactive
Mgst3 (microsomal glutathione S-transferase 3)	SID152342744	no change with or without drug	-0.9	1.35	-1.69	inactive
Or6c1 (olfactory receptor family 6 subfamily C member 1)	SID152268333	low cell count with doxorubicin only	-2.7	-0.84	-2.25	active
Ptpn9 (protein tyrosine phosphatase, non-receptor type 9)	SID152278763	no change with or without drug	0.34	-0.17	0.56	inactive
Brd8 (bromodomain containing 8)	SID152304721	no change with or without drug	-0.34	-0.67	0.22	inactive
Efnb1 (ephrin B1)	SID152301500	no change with or without drug	-1.12	-0.34	-0.9	inactive
Fbxo31 (F-box protein 31)	SID152300834	no change with or without drug	-0.67	-0.51	-0.22	inactive
Arhgef17 (Rho guanine nucleotide exchange factor 17)	SID152267756	no change with or without drug	0	1.52	-0.9	inactive
Cdk11b (cyclin dependent kinase 11B)	SID152325933	no change with or without drug	-0.45	-0.51	0	inactive
Mgat2 (mannoside acetylglucosaminyltransferase 2)	SID152331754	no change with or without drug	-0.79	-0.51	-0.34	inactive
Hif1a (hypoxia inducible factor 1, alpha subunit)	SID152334310	no change with or without drug	1.8	1.18	1.12	inactive
Rcl1 (RNA terminal phosphate cyclase-like 1)	SID152289991	no change with or without drug	0.45	-1.85	2.14	inactive
Arhgdia (Rho GDP dissociation inhibitor alpha)	SID152338539	low cell count with doxorubicin only	-2.02	-0.51	-1.69	active
Galns (galactosamine (N-acetyl)-6-sulfatase)	SID152312052	no change with or without drug	-1.24	-1.52	-0.11	inactive
Mthfsd (methenyltetrahydrofolate synthetase domain containing)	SID152328751	no change with or without drug	0.45	1.35	-0.34	inactive
Gm4827 (predicted gene 4827)	SID152276987	no change with or without drug	-0.67	0.17	-0.67	inactive
Trmt2a (TRM2 tRNA methyltransferase 2A)	SID152289067	no change with or without drug	0	-1.35	1.12	inactive
Slc22a26	SID152305646	no change with or without drug	1.46	-0.51	2.02	inactive
Zfp40 (zinc finger protein 40)	SID152270773	low cell count with and without drug	-2.47	-2.53	-0.9	inactive
A130023I24Rik (RIKEN cDNA A130023I24 gene)	SID152334550	low cell count with doxorubicin only	-2.47	-0.51	-2.25	active
Rps19 (ribosomal protein S19)	SID152322450	low cell count with and without drug	-4.5	-3.37	-2.92	inactive
Trim7 (tripartite motif-containing 7)	SID152322932	no change with or without drug	1.12	0.34	1.01	inactive
Flvcr2 (feline leukemia virus subgroup C cellular receptor 2)	SID152306441	no change with or without drug	0.11	-0.51	0.56	inactive
